# Measured values: the supplement of paper PMC11546906
# Counter-ions that a name gives are not always drawn. The list shows a part of the results. This data set is noisy: repeats of one test often differ as much as different tests do.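 FDA-approved drugs were each paired with colistin at one-eighth its MIC and screened against a multidrug-resistant, mcr-1-positive clinical E. coli isolate, with OD600 read after 24 h. Drug-free bacteria served as growth control, plain broth as blank. Combinations were active if OD600 dropped below 0.2.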
# System: Escherichia coli 42 (mcr-1-positive clinical isolate)
# Experiment: OD600 after 24 h growth with compound plus colistin (absorbance units (OD600)); higher = more bacterial growth (less inhibition)
# Details: first compound 25 µM; colistin concentration 0.5 ug/mL; incubation time 24 h; 37 °C
row,Compound,OD600
1,O=C1OCCN1/N=C/c1ccc([N+](=O)[O-])o1 [Furazolidone] + CCC(C)CCCC(=O)N[C@@H](CCN)C(=O)N[C@H](C(=O)N[C@@H](CCN)C(=O)N[C@H]1CCNC(=O)[C@H]([C@@H](C)O)NC(=O)[C@H](CCN)NC(=O)[C@H](CCN)NC(=O)[C@H](CC(C)C)NC(=O)[C@@H](CC(C)C)NC(=O)[C@H](CCN)NC1=O)[C@@H](C)O [colistin],active: 0.04
2,C[C@]12CCC3=C4CCC(=O)C=C4CC[C@H]3[C@@H]1CC[C@@]2(O)CC#N [Dienogest] + CCC(C)CCCC(=O)N[C@@H](CCN)C(=O)N[C@H](C(=O)N[C@@H](CCN)C(=O)N[C@H]1CCNC(=O)[C@H]([C@@H](C)O)NC(=O)[C@H](CCN)NC(=O)[C@H](CCN)NC(=O)[C@H](CC(C)C)NC(=O)[C@@H](CC(C)C)NC(=O)[C@H](CCN)NC1=O)[C@@H](C)O [colistin],inactive: 0.891
3,CNC[C@H](O)c1cccc(O)c1 [Phenylephrine hydrochloride] + CCC(C)CCCC(=O)N[C@@H](CCN)C(=O)N[C@H](C(=O)N[C@@H](CCN)C(=O)N[C@H]1CCNC(=O)[C@H]([C@@H](C)O)NC(=O)[C@H](CCN)NC(=O)[C@H](CCN)NC(=O)[C@H](CC(C)C)NC(=O)[C@@H](CC(C)C)NC(=O)[C@H](CCN)NC1=O)[C@@H](C)O [colistin],inactive: 1.1
4,CN(C)CCC=C1c2ccccc2CCc2ccccc21 [Amitriptyline hydrochloride] + CCC(C)CCCC(=O)N[C@@H](CCN)C(=O)N[C@H](C(=O)N[C@@H](CCN)C(=O)N[C@H]1CCNC(=O)[C@H]([C@@H](C)O)NC(=O)[C@H](CCN)NC(=O)[C@H](CCN)NC(=O)[C@H](CC(C)C)NC(=O)[C@@H](CC(C)C)NC(=O)[C@H](CCN)NC1=O)[C@@H](C)O [colistin],inactive: 1.04
5,CCOC(=O)[C@H](CCc1ccccc1)N[C@@H](C)C(=O)N1CCC[C@H]1C(=O)O [Enalapril Maleate] + CCC(C)CCCC(=O)N[C@@H](CCN)C(=O)N[C@H](C(=O)N[C@@H](CCN)C(=O)N[C@H]1CCNC(=O)[C@H]([C@@H](C)O)NC(=O)[C@H](CCN)NC(=O)[C@H](CCN)NC(=O)[C@H](CC(C)C)NC(=O)[C@@H](CC(C)C)NC(=O)[C@H](CCN)NC1=O)[C@@H](C)O [colistin],inactive: 1.04
6,C[N+](C)(C)C[C@@H](O)CC(=O)[O-] [D-Carnitine hydrochloride] + CCC(C)CCCC(=O)N[C@@H](CCN)C(=O)N[C@H](C(=O)N[C@@H](CCN)C(=O)N[C@H]1CCNC(=O)[C@H]([C@@H](C)O)NC(=O)[C@H](CCN)NC(=O)[C@H](CCN)NC(=O)[C@H](CC(C)C)NC(=O)[C@@H](CC(C)C)NC(=O)[C@H](CCN)NC1=O)[C@@H](C)O [colistin],inactive: 0.993
7,O=c1[nH]cnc2c1ncn2[C@@H]1O[C@H](CO)[C@@H](O)[C@H]1O [Inosine] + CCC(C)CCCC(=O)N[C@@H](CCN)C(=O)N[C@H](C(=O)N[C@@H](CCN)C(=O)N[C@H]1CCNC(=O)[C@H]([C@@H](C)O)NC(=O)[C@H](CCN)NC(=O)[C@H](CCN)NC(=O)[C@H](CC(C)C)NC(=O)[C@@H](CC(C)C)NC(=O)[C@H](CCN)NC1=O)[C@@H](C)O [colistin],inactive: 1.12
8,Cc1[nH]c(=O)c(C#N)cc1-c1ccncc1 [Milrinone] + CCC(C)CCCC(=O)N[C@@H](CCN)C(=O)N[C@H](C(=O)N[C@@H](CCN)C(=O)N[C@H]1CCNC(=O)[C@H]([C@@H](C)O)NC(=O)[C@H](CCN)NC(=O)[C@H](CCN)NC(=O)[C@H](CC(C)C)NC(=O)[C@@H](CC(C)C)NC(=O)[C@H](CCN)NC1=O)[C@@H](C)O [colistin],inactive: 1.02
9,CN1C2CCCC1CC(NC(=O)c1nn(C)c3ccccc13)C2 (centres undefined) [Granisetron hydrochloride] + CCC(C)CCCC(=O)N[C@@H](CCN)C(=O)N[C@H](C(=O)N[C@@H](CCN)C(=O)N[C@H]1CCNC(=O)[C@H]([C@@H](C)O)NC(=O)[C@H](CCN)NC(=O)[C@H](CCN)NC(=O)[C@H](CC(C)C)NC(=O)[C@@H](CC(C)C)NC(=O)[C@H](CCN)NC1=O)[C@@H](C)O [colistin],inactive: 1.11
